One substance from article PMC8115288 can be followed below.

The assay deals with T1, GST-SAP18 (UniProt O00422).
T1 sequence: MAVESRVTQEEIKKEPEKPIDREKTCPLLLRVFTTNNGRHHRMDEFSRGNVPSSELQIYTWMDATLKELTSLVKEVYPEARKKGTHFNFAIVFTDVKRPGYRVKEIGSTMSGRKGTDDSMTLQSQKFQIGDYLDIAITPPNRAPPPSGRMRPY
Nature of the assay: pull-down; GST-INI1, GST-SAP18, GST-LEDGF or GST-Gemin2 as bait, His6-IN(WT) or His6-IN(W235E) as prey; bound protein quantified as fraction bound after normalising to the loading control.

These are yes or no findings as the source states them, for the method shown. In cells and extracts the contact can be indirect. Binding can be weak; no strength is given. Tags and fused reporters may be left off the sequences shown.

Regarding His6-IN(WT) (HIV-1) (enzyme), the binding entry is “binds”.
